Test results: the supplement of paper PMC10849652
Some of the results follow.

Sequences of proteins named here, by UniProt entry; tags and fusion partners are left off. A change or cut given only in a name is not applied to a line headed by its entry.
UniProt O14777: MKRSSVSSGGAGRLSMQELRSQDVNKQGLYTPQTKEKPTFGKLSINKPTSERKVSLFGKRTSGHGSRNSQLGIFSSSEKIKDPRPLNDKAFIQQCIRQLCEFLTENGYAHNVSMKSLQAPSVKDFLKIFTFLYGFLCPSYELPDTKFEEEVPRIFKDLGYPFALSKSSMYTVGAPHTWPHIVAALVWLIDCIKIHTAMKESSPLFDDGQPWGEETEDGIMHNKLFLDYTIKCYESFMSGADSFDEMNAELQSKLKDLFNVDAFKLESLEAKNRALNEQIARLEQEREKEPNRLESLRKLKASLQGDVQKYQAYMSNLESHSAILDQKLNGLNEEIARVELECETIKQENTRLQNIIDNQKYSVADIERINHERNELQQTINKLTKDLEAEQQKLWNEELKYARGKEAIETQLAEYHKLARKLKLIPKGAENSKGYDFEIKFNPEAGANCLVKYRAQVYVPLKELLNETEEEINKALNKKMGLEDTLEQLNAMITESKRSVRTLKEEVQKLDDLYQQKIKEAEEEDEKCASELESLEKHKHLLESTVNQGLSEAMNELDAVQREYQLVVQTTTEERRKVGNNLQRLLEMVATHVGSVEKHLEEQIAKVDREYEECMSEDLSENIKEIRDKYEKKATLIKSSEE
UniProt Q8NEY1: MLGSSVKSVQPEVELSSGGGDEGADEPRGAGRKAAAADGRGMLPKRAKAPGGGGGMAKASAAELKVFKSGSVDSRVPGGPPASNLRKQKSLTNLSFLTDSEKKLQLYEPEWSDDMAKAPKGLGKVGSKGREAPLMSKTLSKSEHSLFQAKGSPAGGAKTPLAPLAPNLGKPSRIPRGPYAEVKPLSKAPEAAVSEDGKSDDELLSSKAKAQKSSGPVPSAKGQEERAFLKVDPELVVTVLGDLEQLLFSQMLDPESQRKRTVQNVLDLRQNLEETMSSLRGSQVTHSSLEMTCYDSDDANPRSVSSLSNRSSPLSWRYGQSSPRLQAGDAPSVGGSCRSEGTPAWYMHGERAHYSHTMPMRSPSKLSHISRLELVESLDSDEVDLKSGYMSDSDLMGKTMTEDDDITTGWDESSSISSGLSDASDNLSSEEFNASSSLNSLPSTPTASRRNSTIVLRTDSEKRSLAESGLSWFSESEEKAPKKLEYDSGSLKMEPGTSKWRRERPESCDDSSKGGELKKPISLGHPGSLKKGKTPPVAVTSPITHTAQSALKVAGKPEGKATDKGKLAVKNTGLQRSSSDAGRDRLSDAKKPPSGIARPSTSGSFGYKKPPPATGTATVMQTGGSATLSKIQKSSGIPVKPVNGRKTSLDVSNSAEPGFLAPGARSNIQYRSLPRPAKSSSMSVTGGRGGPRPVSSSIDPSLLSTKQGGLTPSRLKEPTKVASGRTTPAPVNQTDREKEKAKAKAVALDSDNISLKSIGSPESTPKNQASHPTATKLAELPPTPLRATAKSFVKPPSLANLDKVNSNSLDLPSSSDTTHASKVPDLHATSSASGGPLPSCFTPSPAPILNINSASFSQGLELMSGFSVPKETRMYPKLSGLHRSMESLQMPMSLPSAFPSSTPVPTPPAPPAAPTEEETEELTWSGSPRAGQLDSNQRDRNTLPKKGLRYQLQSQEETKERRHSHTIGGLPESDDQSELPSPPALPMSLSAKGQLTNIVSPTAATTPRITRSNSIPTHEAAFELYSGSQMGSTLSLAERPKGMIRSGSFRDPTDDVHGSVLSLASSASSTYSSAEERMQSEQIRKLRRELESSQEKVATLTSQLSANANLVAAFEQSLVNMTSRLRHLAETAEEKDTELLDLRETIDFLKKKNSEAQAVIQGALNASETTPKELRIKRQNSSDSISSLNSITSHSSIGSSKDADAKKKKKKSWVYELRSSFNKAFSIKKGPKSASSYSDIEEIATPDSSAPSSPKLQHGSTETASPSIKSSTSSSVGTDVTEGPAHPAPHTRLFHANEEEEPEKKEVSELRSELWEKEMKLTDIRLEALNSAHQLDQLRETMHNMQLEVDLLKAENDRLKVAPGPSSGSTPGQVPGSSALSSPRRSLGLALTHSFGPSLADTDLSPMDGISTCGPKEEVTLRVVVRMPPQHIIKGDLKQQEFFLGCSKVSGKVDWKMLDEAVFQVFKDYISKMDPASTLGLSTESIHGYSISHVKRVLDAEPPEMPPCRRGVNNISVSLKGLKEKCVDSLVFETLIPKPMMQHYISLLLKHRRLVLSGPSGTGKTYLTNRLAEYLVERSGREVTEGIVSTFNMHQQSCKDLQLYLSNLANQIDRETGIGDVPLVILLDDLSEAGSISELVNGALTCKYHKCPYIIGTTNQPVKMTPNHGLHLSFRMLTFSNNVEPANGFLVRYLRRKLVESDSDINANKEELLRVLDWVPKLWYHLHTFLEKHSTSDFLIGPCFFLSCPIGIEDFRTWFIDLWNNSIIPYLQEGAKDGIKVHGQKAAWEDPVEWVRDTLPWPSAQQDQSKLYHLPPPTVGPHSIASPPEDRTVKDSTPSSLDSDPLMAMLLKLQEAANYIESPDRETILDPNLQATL
UniProt Q9GZM8: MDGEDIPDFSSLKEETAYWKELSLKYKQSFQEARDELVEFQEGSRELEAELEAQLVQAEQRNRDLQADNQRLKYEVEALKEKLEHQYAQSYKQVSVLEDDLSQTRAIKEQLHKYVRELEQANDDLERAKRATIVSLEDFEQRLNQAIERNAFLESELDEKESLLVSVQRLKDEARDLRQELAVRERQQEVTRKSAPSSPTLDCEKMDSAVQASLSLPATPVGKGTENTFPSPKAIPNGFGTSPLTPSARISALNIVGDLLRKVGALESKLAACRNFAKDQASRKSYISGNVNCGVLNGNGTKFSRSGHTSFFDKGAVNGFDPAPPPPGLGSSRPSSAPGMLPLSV
UniProt P61599, whole entry, looked up: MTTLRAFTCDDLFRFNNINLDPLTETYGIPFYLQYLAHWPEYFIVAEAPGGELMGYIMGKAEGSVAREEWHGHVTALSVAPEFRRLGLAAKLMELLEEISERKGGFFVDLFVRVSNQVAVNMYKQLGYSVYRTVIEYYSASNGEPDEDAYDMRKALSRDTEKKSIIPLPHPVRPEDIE
UniProt Q8TBE9: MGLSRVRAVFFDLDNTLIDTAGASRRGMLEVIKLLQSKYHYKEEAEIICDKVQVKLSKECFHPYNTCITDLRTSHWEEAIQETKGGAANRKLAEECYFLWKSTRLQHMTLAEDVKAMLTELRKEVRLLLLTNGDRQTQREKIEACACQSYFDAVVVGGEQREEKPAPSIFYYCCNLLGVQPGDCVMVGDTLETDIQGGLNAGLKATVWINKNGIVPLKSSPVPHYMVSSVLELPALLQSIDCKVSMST
UniProt Q92542, whole entry, looked up: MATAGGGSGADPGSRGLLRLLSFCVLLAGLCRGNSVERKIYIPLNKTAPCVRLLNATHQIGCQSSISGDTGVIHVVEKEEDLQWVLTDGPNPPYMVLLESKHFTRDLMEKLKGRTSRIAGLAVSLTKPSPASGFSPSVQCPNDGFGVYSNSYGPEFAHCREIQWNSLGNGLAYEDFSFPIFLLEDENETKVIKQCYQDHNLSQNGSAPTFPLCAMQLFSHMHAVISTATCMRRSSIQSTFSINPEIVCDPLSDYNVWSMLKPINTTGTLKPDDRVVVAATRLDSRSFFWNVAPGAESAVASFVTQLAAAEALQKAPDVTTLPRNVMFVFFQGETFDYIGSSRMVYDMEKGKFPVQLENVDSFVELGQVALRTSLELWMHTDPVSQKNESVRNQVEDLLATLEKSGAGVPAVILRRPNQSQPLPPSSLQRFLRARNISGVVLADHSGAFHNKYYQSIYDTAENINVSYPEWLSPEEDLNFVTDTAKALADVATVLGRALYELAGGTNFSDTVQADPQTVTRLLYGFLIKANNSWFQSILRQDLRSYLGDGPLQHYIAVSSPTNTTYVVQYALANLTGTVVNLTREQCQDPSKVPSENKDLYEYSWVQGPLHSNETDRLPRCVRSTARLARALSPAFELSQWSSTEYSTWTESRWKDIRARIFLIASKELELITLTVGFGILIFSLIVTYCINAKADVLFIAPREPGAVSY
UniProt Q02083: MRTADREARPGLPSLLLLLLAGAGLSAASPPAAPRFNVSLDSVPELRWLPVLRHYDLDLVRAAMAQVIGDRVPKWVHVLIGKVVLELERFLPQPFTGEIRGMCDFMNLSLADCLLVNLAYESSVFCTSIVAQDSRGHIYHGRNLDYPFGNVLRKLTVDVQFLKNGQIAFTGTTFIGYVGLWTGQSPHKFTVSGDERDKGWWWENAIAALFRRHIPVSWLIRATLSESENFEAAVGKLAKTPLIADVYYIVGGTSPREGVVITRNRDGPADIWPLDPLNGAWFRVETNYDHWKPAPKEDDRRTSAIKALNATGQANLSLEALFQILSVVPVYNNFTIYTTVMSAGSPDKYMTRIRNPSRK
UniProt Q9BSU3: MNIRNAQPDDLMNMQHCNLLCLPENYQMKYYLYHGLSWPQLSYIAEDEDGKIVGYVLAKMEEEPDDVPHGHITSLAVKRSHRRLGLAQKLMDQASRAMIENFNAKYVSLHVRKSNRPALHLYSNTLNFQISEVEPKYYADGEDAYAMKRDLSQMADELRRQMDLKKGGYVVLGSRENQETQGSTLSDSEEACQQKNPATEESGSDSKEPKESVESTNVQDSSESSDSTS
UniProt Q15021, whole entry, looked up: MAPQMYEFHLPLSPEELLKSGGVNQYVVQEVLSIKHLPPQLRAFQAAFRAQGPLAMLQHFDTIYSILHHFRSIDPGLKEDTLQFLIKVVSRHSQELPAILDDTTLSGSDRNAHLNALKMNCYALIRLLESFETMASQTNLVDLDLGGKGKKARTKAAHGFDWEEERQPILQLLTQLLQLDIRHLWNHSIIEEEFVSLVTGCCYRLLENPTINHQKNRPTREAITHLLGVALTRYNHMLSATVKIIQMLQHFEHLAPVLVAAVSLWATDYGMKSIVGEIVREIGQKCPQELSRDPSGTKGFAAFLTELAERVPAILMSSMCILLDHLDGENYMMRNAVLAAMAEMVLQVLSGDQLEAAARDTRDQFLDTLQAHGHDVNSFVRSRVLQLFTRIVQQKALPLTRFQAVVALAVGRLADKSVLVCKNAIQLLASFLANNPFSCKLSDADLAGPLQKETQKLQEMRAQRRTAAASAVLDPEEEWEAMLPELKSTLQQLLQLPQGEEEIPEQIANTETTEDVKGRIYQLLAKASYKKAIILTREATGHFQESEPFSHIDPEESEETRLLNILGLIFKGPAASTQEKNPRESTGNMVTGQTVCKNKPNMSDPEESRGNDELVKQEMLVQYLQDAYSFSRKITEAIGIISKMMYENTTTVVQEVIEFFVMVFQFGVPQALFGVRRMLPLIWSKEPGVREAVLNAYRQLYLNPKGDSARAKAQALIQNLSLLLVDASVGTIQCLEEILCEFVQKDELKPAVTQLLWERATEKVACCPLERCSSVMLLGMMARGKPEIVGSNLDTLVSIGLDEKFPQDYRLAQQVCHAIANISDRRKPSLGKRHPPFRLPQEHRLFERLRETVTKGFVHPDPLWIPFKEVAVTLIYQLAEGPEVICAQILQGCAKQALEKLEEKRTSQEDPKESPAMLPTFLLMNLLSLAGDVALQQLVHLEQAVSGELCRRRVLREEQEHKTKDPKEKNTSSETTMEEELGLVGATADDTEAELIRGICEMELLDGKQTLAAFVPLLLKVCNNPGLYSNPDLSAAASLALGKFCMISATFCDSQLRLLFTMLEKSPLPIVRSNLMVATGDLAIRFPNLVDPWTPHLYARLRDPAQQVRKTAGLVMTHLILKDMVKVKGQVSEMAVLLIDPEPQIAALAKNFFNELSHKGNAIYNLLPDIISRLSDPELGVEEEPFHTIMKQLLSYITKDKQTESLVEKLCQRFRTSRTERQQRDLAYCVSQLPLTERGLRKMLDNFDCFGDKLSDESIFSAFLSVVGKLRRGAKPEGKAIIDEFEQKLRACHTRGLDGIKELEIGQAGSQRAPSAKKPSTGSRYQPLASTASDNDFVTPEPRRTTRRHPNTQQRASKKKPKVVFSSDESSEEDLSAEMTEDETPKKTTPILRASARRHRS

Legend:
Assay in all cases: log2 fold change, soluble protein after heating vs DMSO (PISA); higher = thermal stabilisation; K562 cells, 10 uM, 30 min; active = over 0.2 and 3.5 SD of the protein, either way, in both replicates (recomputed)
[1] = compound: CC[C@@H]1C(=O)N(C)c2cnc(Nc3ccc(C(=O)NC4CCN(C)CC4)cc3OC)nc2N1C1CCCC1
Procedure, shortened: (§1)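 K562 cells at 2×10^6 cells/mL were given 10 μM compound for 30 min. Aliquots then went through 3 min of heating across 48°C-58°C, were pooled, and were extracted in PBS with 0.5% NP-40 at 4°C, and the supernatant after 21,000xg for 90 min was quantified by TMTpro 16plex LC-MS/MS with channel sums equalised. Thermal stability relative to control samples, from duplicates, is given as log2 fold change.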

volasertib = compound: CC[C@@H]1C(=O)N(C)c2cnc(Nc3ccc(C(=O)N[C@H]4CC[C@H](N5CCN(CC6CC6)CC5)CC4)cc3OC)nc2N1C(C)C [volasertib]
Procedure, shortened: as §1

[2] = compound: CC[C@H](C)N1C=C(C2=C(C=C(C=C21)C3=CN=C(C=C3)N4CCNCC4)C(=O)NCC5=C(C=C(NC5=O)C)C)C
Procedure, shortened: as §1

epoxomicin = compound: CC[C@H](C)[C@@H](C(=O)N[C@@H]([C@@H](C)O)C(=O)N[C@@H](CC(C)C)C(=O)[C@]1(CO1)C)NC(=O)[C@H]([C@@H](C)CC)N(C)C(=O)C [epoxomicin]
Procedure, shortened: as §1

[3] = compound: CCn1c(C(=O)N(C2CC2)C2CC2)cc2c3c(ncn3C)c(Nc3cc(C)n(C)n3)nc21
Procedure, shortened: as §1

[4] = compound: CCn1cc(-c2ccnc3[nH]c(-c4cccc(CN(C)C)c4)cc23)c(-c2ccc(NC(=O)N(C)C)cc2)n1
Procedure, shortened: as §1

[5] = compound: CN(C)CC(=O)Nc1ccc2[nH]c(=O)c3ccccc3c2c1
Procedure, shortened: as §1

[6] = compound: CN1C2=C(C3=C1C(=O)N(N=C3)CC4=CC(=CC=C4)N)SC(=C2)S(=O)C
Procedure, shortened: as §1

[7] = compound: CN1CCC(CNc2ccc3ncc(-c4cccc(OC(F)(F)F)c4)n3n2)CC1
Procedure, shortened: as §1

saracatinib = compound: CN1CCN(CCOc2cc(OC3CCOCC3)c3c(Nc4c(Cl)ccc5c4OCO5)ncnc3c2)CC1 [saracatinib]
Procedure, shortened: as §1

sotrastaurin = compound: CN1CCN(c2nc(C3=C(c4c[nH]c5ccccc45)C(=O)NC3=O)c3ccccc3n2)CC1 [sotrastaurin]
Procedure, shortened: as §1

alvocidib = compound: CN1CC[C@H](c2c(O)cc(O)c3c(=O)cc(-c4ccccc4Cl)oc23)[C@H](O)C1 [alvocidib]
Procedure, shortened: as §1

Tubastatin A = compound: CN1CCc2c(c3ccccc3n2Cc2ccc(C(=O)NO)cc2)C1 [Tubastatin A]
Procedure, shortened: as §1

[8] = compound: CNC(=O)C1=CC=CC=C1NC2=NC(=NC=C2Cl)NC3=C(C=C(C=C3)N4CCOCC4)OC
Procedure, shortened: as §1

defactinib = compound: CNC(=O)c1ccc(Nc2ncc(C(F)(F)F)c(NCc3nccnc3N(C)S(C)(=O)=O)n2)cc1 [defactinib]
Procedure, shortened: as §1

rucaparib = compound: CNCc1ccc(-c2[nH]c3cc(F)cc4c3c2CCNC4=O)cc1 [rucaparib]
Procedure, shortened: as §1

[9] = compound: CNc1nc(-c2ccc3c(N)n[nH]c3c2)cc(N2C[C@@H](C(=O)NC3CCCCC3)CC[C@H]2C)n1
Procedure, shortened: as §1

encorafenib = compound: COC(=O)N[C@@H](C)CNc1nccc(-c2cn(C(C)C)nc2-c2cc(Cl)cc(NS(C)(=O)=O)c2F)n1 [encorafenib]
Procedure, shortened: as §1

[10] = compound: COC(=O)[C@H](CCSC)NC(=O)C1=C(C=C(C=C1)NC[C@H](CS)N)C2=CC=CC=C2
Procedure, shortened: as §1

rosiglitazone = compound: CN(CCOC1=CC=C(C=C1)C[C@H]2C(=O)NC(=O)S2)C3=CC=CC=N3 (racemic) [rosiglitazone]
Procedure, shortened: as §1

Measured: log2 fold change

NDC80 (UniProt O14777)
inactive: [1] 0.022 | volasertib -0.128 | [2] 0.088 | epoxomicin -0.143 | [3] -0.095 | [4] 0.15 | [5] 0.052 | [6] 0.298 | [7] -0.045 | saracatinib -0.124 | sotrastaurin -0.049 | alvocidib 0.105 | Tubastatin A 0.11 | [8] 0.024 | defactinib 0.09 | rucaparib 0.537 | [9] 0.018 | encorafenib 0.335 | [10] -0.05

NAV1 (UniProt Q8NEY1)
inactive: [1] -0.01 | volasertib -0.118 | [2] 0.013 | epoxomicin 0.045 | [3] -0.002 | [4] -0.245 | [5] -0.03 | [6] 0.229 | [7] -0.168 | saracatinib -0.464 | sotrastaurin 0.09 | alvocidib -0.08 | Tubastatin A 0.084 | [8] -0.199 | defactinib 0.006 | rucaparib 0.022 | [9] 0.149 | encorafenib 0.03 | [10] 0.076

NDEL1 isoform 2 (UniProt Q9GZM8)
inactive: [1] -0.195 | volasertib -0.022 | [2] -0.006 | epoxomicin -0.007 | [3] 0.003 | [4] -0.02 | [5] -0.036 | rosiglitazone -0.035 | [6] -0.109 | [7] -0.059 | saracatinib 0.051 | alvocidib -0.043 | Tubastatin A 0.03 | [8] 0.052 | defactinib -0.106 | rucaparib 0.212 | [9] -0.071 | encorafenib -0.2 | [10] 0.018

NAA20 (UniProt P61599)
inactive: [1] -0.014 | volasertib -0.049 | [2] 0.013 | epoxomicin -0.025 | [3] 0 | [4] -0.058 | [5] -0.002 | rosiglitazone 0.106 | [6] -0.038 | [7] 0.063 | saracatinib 0.003 | sotrastaurin -0.032 | alvocidib -0.11 | Tubastatin A 0.011 | [8] -0.006 | defactinib -0.02 | rucaparib -0.024 | [9] 0.048 | encorafenib -0.013 | [10] 0.027

NANP (UniProt Q8TBE9)
inactive: [1] 0.12 | volasertib 0.028 | [2] -0.004 | epoxomicin -0.031 | [3] -0.046 | [4] 0.023 | [5] 0 | rosiglitazone 0.051 | [6] -0.045 | [7] 0.047 | saracatinib -0.051 | sotrastaurin 0.035 | alvocidib -0.035 | Tubastatin A 0.054 | [8] 0.029 | defactinib -0.016 | rucaparib 0.038 | [9] 0.056 | encorafenib 0.022 | [10] -0.023

NCSTN (UniProt Q92542)
inactive: [1] 0.008 | volasertib -0.071 | [2] -0.052 | epoxomicin -0.014 | [3] -0.054 | [4] -0.036 | [5] 0.04 | rosiglitazone -0.004 | [6] -0.05 | [7] -0.001 | saracatinib 0.05 | sotrastaurin 0.024 | alvocidib -0.019 | Tubastatin A 0.016 | [8] -0.033 | defactinib -0.025 | rucaparib -0.075 | [9] -0.079 | encorafenib 0.022 | [10] 0.001

NAAA (UniProt Q02083)
inactive: [1] 0.252 | volasertib -0.078 | [2] -0.319 | [3] -0.046 | [4] 0.073 | [7] -0.373 | sotrastaurin -0.154 | alvocidib 0.059 | [8] 0.138 | rucaparib -0.071 | encorafenib -0.11

NAA11 (UniProt Q9BSU3)
inactive: [1] -0.013 | volasertib -0.041 | [2] 0.044 | epoxomicin 0.063 | [5] -0.114 | [6] 0.001 | saracatinib 0.033 | sotrastaurin -0.247 | Tubastatin A 0.035 | [8] -0.078 | defactinib -0.132 | rucaparib 0.135 | [9] -0.133 | encorafenib 0.022 | [10] 0.034

NCAPD2 (UniProt Q15021)
inactive: [1] -0.131 | [2] 0.081 | epoxomicin 0.019 | [4] 0 | [5] 0.075 | [6] 0.044 | [7] -0.098 | saracatinib -0.052 | sotrastaurin -0.145 | Tubastatin A 0.012 | [8] 0.111 | defactinib -0.052 | rucaparib 0.142 | [9] 0.008 | encorafenib 0.11 | [10] -0.025
active: volasertib -0.486
